Laboratory results as given in patent publication US20210008166A1 (SPECTRUM PHARMACEUTICALS, published 2021).
No constants are given. Whether binding was seen depends on the method and setting. Some entries that bind do so weakly or less than the wild type.

Chains of the proteins cited; added tags and fusions are not shown. Lines headed by an entry give the natural chain unless they say otherwise; changes in a name come on top. A line that says so, or that is headed by a name, gives the form on record, which may keep a tag or linker.
Pegfilgrastim (Neulasta) (P09919, form named): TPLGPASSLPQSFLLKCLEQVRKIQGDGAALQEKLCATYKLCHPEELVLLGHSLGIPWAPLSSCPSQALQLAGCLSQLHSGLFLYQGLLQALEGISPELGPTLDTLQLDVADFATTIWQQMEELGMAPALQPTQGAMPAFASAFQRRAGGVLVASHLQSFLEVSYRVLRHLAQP

Assays:
[1] = target: T1, Chinese hamster ovary (CHO) cell-derived soluble recombinant human G-CSF receptor (R&D Systems, 381-050/CF) (human) (UniProt Q99062); test: SPR (summary; target not given, G-CSF receptor from context)
T1 sequence (looked up): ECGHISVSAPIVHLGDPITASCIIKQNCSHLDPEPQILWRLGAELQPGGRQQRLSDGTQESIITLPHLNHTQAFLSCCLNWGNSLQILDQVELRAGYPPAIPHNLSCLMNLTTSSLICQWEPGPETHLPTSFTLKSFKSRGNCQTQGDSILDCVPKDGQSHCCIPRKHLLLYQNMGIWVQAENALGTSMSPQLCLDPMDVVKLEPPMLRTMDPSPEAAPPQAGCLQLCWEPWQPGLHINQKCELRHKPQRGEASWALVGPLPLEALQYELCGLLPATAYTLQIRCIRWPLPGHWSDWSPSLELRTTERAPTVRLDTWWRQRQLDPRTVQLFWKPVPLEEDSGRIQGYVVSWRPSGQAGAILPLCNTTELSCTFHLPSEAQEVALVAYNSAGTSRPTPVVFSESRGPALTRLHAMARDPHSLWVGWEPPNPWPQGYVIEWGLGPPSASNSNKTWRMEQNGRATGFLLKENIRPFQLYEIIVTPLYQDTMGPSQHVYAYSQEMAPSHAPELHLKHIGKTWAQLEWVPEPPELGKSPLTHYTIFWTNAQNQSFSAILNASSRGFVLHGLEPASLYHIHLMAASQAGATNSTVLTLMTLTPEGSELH

[2] = target: T1, Chinese hamster ovary (CHO) cell-derived soluble recombinant human G-CSF receptor (R&D Systems, 381-050/CF) (human); test: SPR (discussion of the example)
[3] = target: T1, Chinese hamster ovary (CHO) cell-derived soluble recombinant human G-CSF receptor (R&D Systems, 381-050/CF) (human); test: SPR (discussion; target not given, G-CSF receptor from context)

Measured: binding

Pegfilgrastim (Neulasta) (from UniProt P09919 31-204) (ligand)
binds: [1] | [2] | [3]
